Experiment: Evaluation of odor by direct application (sensory)
Conditions: applied ragweed sealed in plastic bag, sensory evaluation after one day

Structure (SMILES) | odor | odor (listed as Comparative Example 1) | odor (listed as Comparative Example 2) | odor (listed as Comparative Example 3) | odor (listed as Comparative Example 4)
CCCCCC(=O)O [compound 1, caproic acid] | stink | stank | – | – | –
CCCCCCCCC(=O)O [compound 2, pelargric acid] | stink | – | stank | – | –
C=CCCCCCCCCC(=O)O [compound 3, undecylenoic acid] | stink | – | – | stank | –
CCCCCCCCC(=O)OCCO [compound 4, ethylene glycol monopelargric acid ester] | – | – | – | – | only slightly smelled
